{
  "source": "patent US20240000811A1",
  "about": "“INOSITOL HEXAKISPHOSPHATE ANALOGUES FOR TREATMENT OF CALCIFICATION ASSOCIATED KIDNEY DISEASES” (INOSITEC AG, priority 2020, published 2024)",
  "system": "C57BL/6 male mice on high phosphate diet",
  "assay": "Mouse model of high phosphate-induced kidney damage",
  "assay_type": "in vivo",
  "settings": "100 mg/kg s.c. three times a week, 12 to 20 weeks of age",
  "method": "C57BL/6 male mice (12 weeks of age) were placed on either regular diet containing 0.35% inorganic phosphate or high phosphate diet containing 2.0% inorganic phosphate. These mice were subcutaneously injected with either (OEG2)2-IP4 (100 mg/kg) or vehicle (distilled water) three times a week and then sacrificed at 20 weeks of age to harvest their blood and kidneys. Some mice were transferred individually to metabolic cages to collect urine for 3 days before sacrifice. Serum FGF23 levels were measured using intact FGF23 ELISA (Kinos) according to the manufacturers' protocols. Serum and urine levels of phosphate were measured using Fuji Dri-Chem slides and the analyzer (Dri-Chem NX500V, Fuji, Tokyo, Japan). […] Quantitative RT-PCR reactions were performed using 20 ng of cDNA incubated with 410 nM of each primer and 6 μL of SYBR Green PCR Master mix (Toyoba, Osaka, Japan THUNDERBIRD SYBR qPCR Mix QPS-201) in a total volume of 12 μl. […] Relative mRNA levels were calculated by the comparative threshold cycle method using cyclophilin as an internal control. […] The collagen volume fraction (the ratio of the Sirius Red-positive area to the total area) was quantified using an image analysis software (IMAGE PRO 9.32, Medica Cybernetics, Rockville, MD, USA) as previously described (Hirano, Y. Kurosu et al., FEBS Open Bio. 10, 894-903. DOI:10.1002/2211-5463.1284, 2020). […]",
  "data": [
    {"compound": "COCCOCCO[C@@H]1C(OP(=O)(O)O)[C@H](OCCOCCOC)[C@@H](OP(=O)(O)O)C(OP(=O)(O)O)[C@H]1OP(=O)(O)O", "note": "(some centres unmarked) [(OEG2)2-IP4]", "values": [
      {"measurement": "serum phosphate, CaP or urine calcium at the end of the treatment period, treatment vs vehicle group", "result": "no significant differences"},
      {"measurement": "urinary phosphate excretion, treatment vs vehicle group", "result": "no significant difference"}
    ]}
  ]
}
